Library compounds against nucleic acid targets

Source: the ROBIN nucleic acid binder screens (doi:10.1002/anie.202211358).

Targets (5′ to 3′):
SAM-II: SAM-II riboswitch RNA pseudoknot, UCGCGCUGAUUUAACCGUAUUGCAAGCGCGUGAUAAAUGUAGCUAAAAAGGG. About 21,000 compounds screened, about 200 hits.
PreQ1: PreQ1 riboswitch RNA pseudoknot, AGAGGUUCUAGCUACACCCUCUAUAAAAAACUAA. From B. subtilis. About 24,000 compounds screened, about 170 hits.
TPP: TPP riboswitch RNA three-way junction, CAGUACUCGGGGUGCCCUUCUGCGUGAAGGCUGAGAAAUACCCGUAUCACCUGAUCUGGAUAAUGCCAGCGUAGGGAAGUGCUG. About 24,000 compounds screened, about 160 hits.

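Each compound is printed as two spots on a slide made to bind it covalently, so it has no test concentration; the read-out is fluorescence of the bound, labelled oligonucleotide. For the PreQ1, TPP and SAM-II riboswitches the laboratory earlier reported (doi:10.1038/s41467-019-09493-3) 1 µM RNA, 2 h, and a rule that included a mean Z-score above 3 (spot signal-to-noise against the whole library), a score well above that on a control array, and duplicate spots agreeing (coefficient of variation under 100). The data file gives only the calls; its cut-offs may differ, and compounds hitting several targets are kept. The calls come from the array alone, and fixing a compound to the slide can hide its binding.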 Key: active = hit, inactive = tested without a hit. The compounds are a random part of those screened. A target missing from an entry has no call listed here. A dash means that no call is listed here.

compound: COc1ccc(C(=O)c2c(C)n(CCN3CCOCC3)c3cc(I)ccc23)cc1
SAM-II: inactive
PreQ1: inactive
TPP: inactive

compound: CCC[C@H]1CN(S(C)(=O)=O)C[C@@H]1NC(=O)c1cnc(N)nc1C
SAM-II: inactive
PreQ1: inactive
TPP: inactive

compound: COc1ccc(CNc2cc(-c3ccc(OC)cc3)nc3nncn23)cc1
PreQ1: inactive
TPP: inactive

compound: CN(C)c1nc(N2CCC3(CC2)CC(O)CO3)ncc1F (configuration not stated)
SAM-II: inactive
PreQ1: inactive
TPP: inactive

compound: O=C(c1cccc(F)c1F)N1CCCC2(CCNCC2)CC1
SAM-II: inactive
PreQ1: inactive
TPP: inactive

compound: OCC1COCCN(c2nccc(C(F)(F)F)n2)C1 (configuration not stated)
SAM-II: inactive
PreQ1: inactive
TPP: inactive

compound: CCOc1cccc(C2c3c(-c4cc(C)ccc4O)n[nH]c3C(=O)N2CCCO)c1 (configuration not stated)
PreQ1: inactive
TPP: inactive

compound: COC(=O)c1ccc(-c2nc3cnccn3c2Nc2cccc(OC)c2)cc1
PreQ1: inactive
TPP: inactive

compound: CC(=O)c1sc(Nc2ccc(N(C)C)cc2)nc1C
SAM-II: inactive
PreQ1: inactive
TPP: inactive

compound: CC(C)c1cc(C(=O)N2CCC(O)(CO)CC2)cs1
SAM-II: inactive
PreQ1: inactive
TPP: inactive

compound: COc1ccccc1[C@H]1C[C@@H](c2ccc(F)cc2)Nc2nc(N)nn21
SAM-II: inactive
PreQ1: inactive
TPP: inactive

compound: Cc1cc2nc(-c3cccc(N)c3C)oc2cc1C
SAM-II: inactive
PreQ1: inactive
TPP: inactive

compound: Brc1ccc(CNCc2ccncc2)cc1.Cl
SAM-II: inactive
PreQ1: inactive
TPP: inactive

compound: Cn1cnnc1Sc1ccc(-c2cn(CC(O)CO)nn2)o1 (configuration not stated)
SAM-II: inactive
PreQ1: inactive
TPP: inactive

compound: Fc1ccc(Nc2nc(-c3cccs3)cs2)cc1
SAM-II: inactive
PreQ1: inactive
TPP: inactive

compound: OCC#CCSc1ncnn1-c1ccccc1
SAM-II: inactive
PreQ1: inactive
TPP: inactive

compound: CCCCNC(=O)N1C[C@@H](CN2CCCN(C)CC2)[C@@H](CO)C1
SAM-II: inactive
PreQ1: inactive
TPP: inactive

compound: OC(Cc1ccccc1)C1CCN(c2ncccn2)CC1 (configuration not stated)
SAM-II: inactive
PreQ1: inactive
TPP: inactive

compound: Cc1ccccc1OC1CN(C(=O)[C@@H]2C[C@@H](NC(=O)c3ccc(F)cc3)CN2)C1
SAM-II: inactive
PreQ1: inactive
TPP: inactive

compound: CC(O)c1cccc(NC(=O)C=CC(=O)O)c1 (configuration not stated)
SAM-II: inactive
PreQ1: inactive
TPP: inactive

compound: Cc1cnn(CCNCc2cc(O)c3cc(F)ccc3n2)c1
SAM-II: inactive
PreQ1: inactive
TPP: inactive

compound: COc1ccc(CNc2ccc(Br)c(C)c2)c2ccccc12
SAM-II: inactive
PreQ1: inactive
TPP: inactive

compound: Cc1ccc(-n2nnc(C(=O)Nc3ccc4c(c3)C(=O)OC4)c2N)cc1
SAM-II: inactive
PreQ1: inactive
TPP: inactive

compound: O=C(O)CCC1(c2ccccc2)NC(=O)NC1=O (configuration not stated)
SAM-II: inactive
PreQ1: inactive
TPP: inactive

compound: CCOC(=O)c1cccc(Nc2c(C(=O)OCC)cnc3c(C)cc(C)cc23)c1
SAM-II: inactive
PreQ1: inactive
TPP: inactive

compound: N#Cc1cc(C#N)c(=S)[nH]c1N
SAM-II: inactive
PreQ1: inactive
TPP: inactive

compound: CCCNc1cc(C)nc2nc(-c3ccccc3C)nn12
PreQ1: inactive
TPP: inactive

compound: CCOc1ccc(C(O)Cn2c(=N)n(CCN3CCCCC3)c3ccccc32)cc1 (configuration not stated)
SAM-II: inactive
PreQ1: inactive
TPP: inactive

compound: Nc1nnc(-c2ccc(Cl)cc2Cl)s1
SAM-II: inactive
PreQ1: inactive
TPP: inactive

compound: CCOc1ccc(N2CCc3c2nc2ccc(Br)cc2c3N)cc1
SAM-II: inactive
PreQ1: inactive
TPP: inactive

Some entries from above, unchanged:

compound	SAM-II	PreQ1	TPP
CC(C)c1cc(C(=O)N2CCC(O)(CO)CC2)cs1	inactive	inactive	inactive
CCOc1cccc(C2c3c(-c4cc(C)ccc4O)n[nH]c3C(=O)N2CCCO)c1 (configuration not stated)	-	inactive	inactive
Brc1ccc(CNCc2ccncc2)cc1.Cl	inactive	inactive	inactive